Assay results published in article PMC7157780.
No constants are given. Whether binding was seen depends on the method and setting. Binding seen in cells or lysates may run through a third protein. Binding calls can cover weak binding; strength is not graded here.

By UniProt entry, the sequences of proteins in these tests, tags left out. Where a name states a change or a piece, a line headed by the entry shows the natural chain unless it says otherwise.
UniProt Q2YQG1: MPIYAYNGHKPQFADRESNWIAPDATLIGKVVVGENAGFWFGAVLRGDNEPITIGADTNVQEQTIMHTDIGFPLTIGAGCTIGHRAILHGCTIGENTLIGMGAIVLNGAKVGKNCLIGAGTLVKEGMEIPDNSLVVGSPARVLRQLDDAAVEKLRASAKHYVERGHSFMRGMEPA
UniProt P61019: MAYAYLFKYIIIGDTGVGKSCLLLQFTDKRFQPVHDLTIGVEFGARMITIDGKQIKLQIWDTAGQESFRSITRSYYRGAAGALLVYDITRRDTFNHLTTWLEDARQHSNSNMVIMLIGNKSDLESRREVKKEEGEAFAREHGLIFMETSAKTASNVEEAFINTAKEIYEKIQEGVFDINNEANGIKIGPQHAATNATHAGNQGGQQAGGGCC

Biological target: myc-tagged RicA (Brucella abortus) (UniProt Q2YQG1)
Assay: co-IP; […] (20 mM Tris-HCl pH 7.5, 150 mM NaCl, 2 mM MgCl2, 0.5% Triton X-100); […]

“GFP-tagged Rab2a, wild type (from UniProt P61019 1-212)” was tested, and the binding was “binds”.
